# Several values for one entry are separate records, joined by “and”; a condition that tells them apart may be missing. Equal entries are not always repeated. Where two headings read alike, the source gives them in different places. This continues a long series; more values of the same kind are listed elsewhere. Numbered stars: 1 amine (or outer) side, 2 acyl side, 3 side chain; on linkers, the order of the positions; unused ones are H or OH. Square brackets hold non-standard residues; d marks the D form. Peptide text beside a SMILES is read from it. NMeTrp(1-(4-Br-benzyl)) = CN[C@@H](Cc1cn(Cc2ccc(Br)cc2)c2ccccc12)C(=O)O; X3 = CCn1cc(C[C@@H](C(=O)[*:2])N(C)[*:1])c2ccccc21; Butanoyl(2R-oxy,4-CN) = N#CCC[C@@H](O)C(=O)O; Abu(4,4,4-F3) = N[C@@H](CC(F)(F)F)C(=O)O; NMeL = CN[C@@H](CC(C)C)C(=O)O; NMeA = CN[C@@H](C)C(=O)O
# Protein sequences, listed by entry. Tags and fused reporters are not part of them.
# UniProt P61619, whole entry: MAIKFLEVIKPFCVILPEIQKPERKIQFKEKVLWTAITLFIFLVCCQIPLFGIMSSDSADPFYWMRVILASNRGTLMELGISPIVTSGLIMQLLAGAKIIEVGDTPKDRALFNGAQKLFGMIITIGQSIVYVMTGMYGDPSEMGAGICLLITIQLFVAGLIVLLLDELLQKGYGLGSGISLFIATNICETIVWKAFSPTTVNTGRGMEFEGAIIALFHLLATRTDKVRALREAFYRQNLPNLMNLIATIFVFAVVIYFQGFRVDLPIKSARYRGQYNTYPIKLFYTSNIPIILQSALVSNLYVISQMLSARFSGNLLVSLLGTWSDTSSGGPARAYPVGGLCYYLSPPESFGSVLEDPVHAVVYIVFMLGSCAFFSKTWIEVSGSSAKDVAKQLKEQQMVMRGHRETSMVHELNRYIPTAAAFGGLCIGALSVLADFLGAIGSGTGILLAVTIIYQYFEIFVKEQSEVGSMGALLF
# Columns and labels:
# Sec61 = biological target: T1, Sec61 (Homo sapiens, UniProt P61619); assay type: cell-based
# T1 construct: endogenous in cells
# [1] = tested on: collagen antibody-induced arthritis in BALB/c mice; assay: Anticollagen antibody-induced arthritis model, clinical scores; assay type: in vivo, mouse; details: individual mice
structure (smiles),measurement,setting,value
"CC(C)C[C@@H]1NC(=O)[C@H](Cc2cn(Cc3ccc(Br)cc3)c3ccccc23)N(C)C(=O)[C@H](CC(F)(F)F)NC(=O)[C@H](CC(C)C)N(C)C(=O)[C@H](CC(F)(F)F)NC(=O)[C@@H](CCC#N)OC(=O)[C@H](C)N(C)C1=O [KZR-0508445] (cyclo(L[NMeA][Butanoyl(2R-oxy,4-CN)][Abu(4,4,4-F3)][NMeL][Abu(4,4,4-F3)][NMeTrp(1-(4-Br-benzyl))]))",GLuc reporter raw signal (replicates),"Sec61; HER3, Concentration 1.6",2805900 and 2941000 and 2889300
same,GLuc reporter raw signal (replicates),"Sec61; HER3, Concentration 8",2693200
same,GLuc reporter raw signal (replicates),"Sec61; IL2, Concentration 1.6",2677000 and 2450100 and 2546300
same,GLuc reporter raw signal (replicates),"Sec61; PD1, Concentration 1.6",1024000 and 1048400 and 1028000
same,GLuc reporter raw signal (replicates),"Sec61; Prolactin, Concentration 1.6",9456300 and 9631100 and 9495900
same,GLuc reporter raw signal (replicates),"Sec61; Prolactin, Concentration 8",9284600 and 9316800 and 9151200
same,GLuc reporter raw signal (replicates),"Sec61; TNFa, Concentration 1.6",181080 and 186140 and 191280
same,GLuc reporter raw signal (replicates),"Sec61; TNFa, Concentration 8",176140
"CC(C)C[C@@H]1NC(=O)[C@H](Cc2cn(Cc3ccc(Br)cc3)c3ccccc23)N(C)C(=O)[C@H](CC(F)(F)F)NC(=O)[C@H](CC(C)C)N(C)C(=O)[C@H](CC(F)(F)F)NC(=O)[C@@H](CCC#N)OC(=O)[C@H](C)N(C)C1=O [KZR-508445] (cyclo(L[NMeA][Butanoyl(2R-oxy,4-CN)][Abu(4,4,4-F3)][NMeL][Abu(4,4,4-F3)][NMeTrp(1-(4-Br-benzyl))]))",Clinical score,"[1]; 2.5 mg/kg IV QODx3, day 4",1 (6×) and 2 (4×)
same,Clinical score,"[1]; 2.5 mg/kg IV QODx3, day 5",3 (3×) and 2 (2×) and 4 (5×)
same,Clinical score,"[1]; 2.5 mg/kg IV QODx3, day 6",4 (3×) and 6 (4×) and 3 and 7 (2×)
same,Clinical score,"[1]; 2.5 mg/kg IV QODx3, day 7",7 (3×) and 5 and 4 and 9 (2×) and 6 (2×) and 10
same,Clinical score,"[1]; 2.5 mg/kg IV QODx3, day 10",10 and 7 (3×) and 9 (2×) and 5 and 11 (2×) and 12
same,Clinical score,"[1]; 2.5 mg/kg IV QODx3, day 11",11 (3×) and 7 (2×) and 10 and 5 and 12 and 9 and 8
same,Clinical score,"[1]; 2.5 mg/kg IV QODx3, day 12",11 (4×) and 6 and 4 and 12 and 9 and 8 and 7
same,Clinical score,"[1]; 5 mg/kg IV QODx3, day 4",3 and 2 (5×) and 1 (4×)
same,Clinical score,"[1]; 5 mg/kg IV QODx3, day 5",5 and 2 (5×) and 3 (4×)
same,Clinical score,"[1]; 5 mg/kg IV QODx3, day 6",6 (2×) and 3 (3×) and 5 (2×) and 4 (3×)
same,Clinical score,"[1]; 5 mg/kg IV QODx3, day 7",9 and 5 (3×) and 6 (3×) and 4 (2×) and 8
same,Clinical score,"[1]; 5 mg/kg IV QODx3, day 10",12 and 6 and 9 (2×) and 5 (3×) and 8 and 7 and 11
same,Clinical score,"[1]; 5 mg/kg IV QODx3, day 11",12 and 5 (2×) and 9 (2×) and 4 (2×) and 8 (2×) and 11
same,Clinical score,"[1]; 5 mg/kg IV QODx3, day 12",12 and 5 and 10 and 4 (3×) and 8 (3×) and 11
same,Clinical score,"[1]; 10 mg/kg IV QODx3, day 4",1 (5×) and 2 (4×) and 3
same,Clinical score,"[1]; 10 mg/kg IV QODx3, day 5",2 (6×) and 3 (4×)
same,Clinical score,"[1]; 10 mg/kg IV QODx3, day 6",4 (2×) and 5 (2×) and 3 (4×) and 6 and 2
same,Clinical score,"[1]; 10 mg/kg IV QODx3, day 7",4 (3×) and 5 (4×) and 7 and 6 (2×)
same,Clinical score,"[1]; 10 mg/kg IV QODx3, day 10",5 (2×) and 8 (3×) and 6 and 7 (3×) and 4
same,Clinical score,"[1]; 10 mg/kg IV QODx3, day 11",5 (3×) and 8 (3×) and 6 and 3 and 7 (2×)
same,Clinical score,"[1]; 10 mg/kg IV QODx3, day 12",5 (3×) and 8 and 9 (2×) and 6 and 3 and 7 (2×)
same,Clinical score,"[1]; 20 mg/kg IV QODx3, day 4",3
same,Clinical score,"[1]; 20 mg/kg IV QODx3, day 5",2 (7×) and 1 (5×) and 3 (3×)
same,Clinical score,"[1]; 20 mg/kg IV QODx3, day 6",5 (2×) and 4 (2×) and 1 and 2 (4×) and 3 (5×) and 0
same,Clinical score,"[1]; 20 mg/kg IV QODx3, day 7",8 and 6 (3×) and 1 and 3 (2×) and 4 (4×) and 0 and 5 (2×) and 2
same,Clinical score,"[1]; 20 mg/kg IV QODx3, day 10",7 (2×) and 1 (2×) and 4 (3×) and 5 (2×) and 0 and 3 and 8
same,Clinical score,"[1]; 20 mg/kg IV QODx3, day 11",7 (2×) and 2 and 4 (4×) and 5 and 0 and 3 and 8 and 1
same,Clinical score,"[1]; 20 mg/kg IV QODx3, day 12",7 (2×) and 1 (2×) and 3 (2×) and 4 (3×) and 5 and 0 and 8
same,Clinical score,"[1]; 20 mg/kg IV QW, day 4",1 (4×) and 2 (5×) and 3
same,Clinical score,"[1]; 20 mg/kg IV QW, day 5",1 (3×) and 3 and 2 (6×)
same,Clinical score,"[1]; 20 mg/kg IV QW, day 6",1 and 2 and 6 and 5 (3×) and 3 and 4 (3×)
same,Clinical score,"[1]; 20 mg/kg IV QW, day 7",1 and 3 and 7 and 6 (4×) and 4 and 5 (2×)
same,Clinical score,"[1]; 20 mg/kg IV QW, day 10",2 and 4 and 9 (3×) and 7 (2×) and 6 (2×) and 8
same,Clinical score,"[1]; 20 mg/kg IV QW, day 11",0 and 4 and 8 (2×) and 6 (3×) and 7 (2×) and 5
same,Clinical score,"[1]; 20 mg/kg IV QW, day 12",0 and 3 and 9 and 6 (3×) and 7 and 8 (2×) and 4
"CCn1cc(C[C@H]2C(=O)N[C@@H](CC(C)C)C(=O)N(C)[C@@H](C)C(=O)O[C@H](CCC#N)C(=O)N[C@@H](CC(F)(F)F)C(=O)N(C)[C@@H](CC(C)C)C(=O)N[C@@H](CC(F)(F)F)C(=O)N2C)c2ccccc21 [KZR-0509508] (cyclo(L[NMeA][Butanoyl(2R-oxy,4-CN)][Abu(4,4,4-F3)][NMeL][Abu(4,4,4-F3)][X3]))",GLuc reporter raw signal (replicates),"Sec61; HER3, Concentration 1.6",2847100 and 2861900 and 2946000
same,GLuc reporter raw signal (replicates),"Sec61; HER3, Concentration 8",2749300 and 2978800 and 2982800
same,GLuc reporter raw signal (replicates),"Sec61; IL2, Concentration 1.6",2678300 and 2698800 and 2606600
same,GLuc reporter raw signal (replicates),"Sec61; PD1, Concentration 1.6",1143400 and 1043200 and 1112200
same,GLuc reporter raw signal (replicates),"Sec61; Prolactin, Concentration 1.6",8721400 and 8252800 and 8499000
same,GLuc reporter raw signal (replicates),"Sec61; TNFa, Concentration 1.6",167830 and 162480 and 155660
same,GLuc reporter raw signal (replicates),"Sec61; TNFa, Concentration 8",163990 and 157990

# Reference: paper PMC10449633 (Nature Chemical Biology, 2023)
